From patent publication US20180339066A1, “Methods and Compositions for Enhancing Transduction Efficiency of Retroviral Vectors” (The Scripps Research Institute, priority 2013, published 2018)
At least one compound was matched to its structure with a doubt left.

Legend:
[1] = tested on: primary human monocytes, monocyte-derived dendritic cells and macrophages; assay: Lentiviral transduction of primary myeloid cells; assay type: cell-based; details: MOI=50
[2] = tested on: NSG-repopulating cells; assay: NSG mouse reconstitution with transduced cord blood CD34+ cells (long-term engraftment); assay type: in vivo, human; details: qPCR of mouse bone marrow cells, adjusted for reconstitution
Protocol: Colony forming assay, NSG mouse reconstitution, and serial transplantation. For colony forming assays, transduced cord blood CD34^+ HSPCs were counted and 100 cells were seeded in 1.5 ml methocult4434 (StemCell Technologies) in 30 mm dishes in triplicate. Total BFU-E, CFU-GM, CFU-M, and CFU-GEMM colonies, as well as GFP+ colonies, were counted 16-18 days after plating using a fluorescent microscope. […] Mice were bled every 4 weeks starting from 8 weeks post injection, and sacrificed at 19 weeks to assess engraftment and GFP expression in the bone marrow, spleen, and thymus by flow cytometry. For serial transplantation, primary recipients were sacrificed at 12 weeks post injection, and bone marrow cells from both femurs of one mouse were injected into two irradiated secondary recipients, which were again sacrificed at 12 weeks post injection for flow cytometric analysis of bone marrow and spleen. NSG mice were maintained at the Scripps Research Institute Molecular and Experimental Medicine animal facility.
To determine whether primitive HSCs in the heterogeneous CD34^+ population are transduced in the presence of rapamycin, we tested the ability of transduced cord blood CD34^+ cells to engraft irradiated NSG mice. A fraction of transduced cells was assessed in parallel liquid culture and colony forming assays. […]

[3] = tested on: human CD34+ cells; assay type: cell-based
[4] = tested on: adult bone marrow CD34+ cells; assay type: cell-based, human; details: both non-stimulated and stimulated conditions
[5] = tested on: primary human CD4+ T cells; assay: Lentiviral transduction of resting and activated CD4+ T cells; assay type: cell-based
[6] = tested on: human cord blood CD34+ cells; assay: HIV-1 based lentiviral vector transduction of cord blood CD34+ cells, GFP by flow cytometry; assay type: cell-based
[7] = tested on: stimulated cord blood CD34+ cells; assay: Quantification of HIV-1 reverse transcription products by qPCR
[8] = tested on: human cord blood CD34+ cells; assay: Integrase-defective lentiviral vector (IDLV) transduction of cord blood CD34+ cells; details: 2-14 days post transduction
[9] = tested on: mouse Lin- cells; assay: Lentiviral and IDLV transduction of mouse Lin- cells; assay type: cell-based; details: 5 μg/ml rapamycin; integrating lentiviral vectors or IDLVs
[10] = IDLV transduction, MOI=50, 12 h post transduction

CO[C@H]1C[C@@H]2CC[C@@H](C)[C@@](O)(O2)C(=O)C(=O)N2CCCC[C@H]2C(=O)O[C@H]([C@H](C)C[C@@H]2CC[C@@H](O)[C@H](OC)C2)CC(=O)[C@H](C)/C=C(\C)[C@@H](O)[C@@H](OC)C(=O)[C@H](C)C[C@H](C)/C=C/C=C/C=C/1C [rapamycin]
transduction efficiency [1]: decreased
inserted provirus copy numbers [2]: non-significant increases
efficiency of LASV-pseudotyped vector transduction [3]: markedly enhanced
increase in transduction efficiency [4]: two-fold increase
transduction efficiency [5]: unchanged
transduction enhancement after pre-treatment ([6]; 4-6 hours of pre-treatment, then transduced without rapamycin, vs 12 hours concurrent treatment): equivalent transduction enhancement
transduction enhancement after delayed addition ([6]; 6-hour delay in rapamycin addition after vector addition): abolished
transduction efficiency at a range of MOIs ([6]; MOI 10, 50, 100, non-stimulated and stimulated cord blood CD34+ cells): transduction increase at each MOI
magnitude of increase in transduction efficiency ([6]; non-stimulated cord blood CD34+ cells): minor
increase in transduction efficiency ([6]; pre-stimulated cord blood CD34+ cells, vs no rapamycin): two-fold increase
increase in full-length viral DNA [7, 10]: two-fold increases
increase in strong-stop viral DNA [7, 10]: two-fold increases
ratios of viral DNA species between adjacent steps, with vs without rapamycin ([7]; full-length/strong-stop and 2-LTR/full-length): similar
persistence of the GFP difference [8]: gradually dissipated within two weeks
mean fluorescent intensities [9]: increased
percentages of GFP expression [9]: increased
provirus copy numbers [9]: increased
